Source: PMC11698036
These are yes or no findings as the source states them, for the method shown. Some binding calls cover weakened binding; strength is not graded here. Where a sequence is shown, tags or fusion partners need not be part of it.

By UniProt entry, the sequences of proteins in these tests, tags left out. Residues count along the entry.
UniProt P35579, residues 1339-1960: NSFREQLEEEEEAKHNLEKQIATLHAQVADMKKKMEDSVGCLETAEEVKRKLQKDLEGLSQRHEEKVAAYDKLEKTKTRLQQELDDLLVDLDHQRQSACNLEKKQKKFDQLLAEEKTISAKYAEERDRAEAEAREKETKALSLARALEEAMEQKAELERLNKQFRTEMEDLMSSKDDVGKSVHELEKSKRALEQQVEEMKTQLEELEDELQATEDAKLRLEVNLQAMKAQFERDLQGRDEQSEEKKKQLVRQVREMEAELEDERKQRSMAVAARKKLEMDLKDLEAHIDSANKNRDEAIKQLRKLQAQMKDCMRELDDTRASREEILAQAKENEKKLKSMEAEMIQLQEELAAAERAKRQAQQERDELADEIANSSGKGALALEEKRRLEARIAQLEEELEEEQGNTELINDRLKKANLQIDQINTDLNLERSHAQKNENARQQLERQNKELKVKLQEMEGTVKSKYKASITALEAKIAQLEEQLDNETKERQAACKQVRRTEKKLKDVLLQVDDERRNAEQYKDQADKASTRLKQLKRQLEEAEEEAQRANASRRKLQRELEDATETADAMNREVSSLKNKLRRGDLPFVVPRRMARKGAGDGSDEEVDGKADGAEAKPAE

Experiments:
[1] = target: T1, septin 2–septin 6–septin 7 complex (His–SEPT2/6/7–Strep) (UniProt P42208); test: pull-down; His–SEPT2/6/7–Strep or His–SEPT2/6/7/9–Strep immobilised on Strep-Tactin Sepharose; His–Borg5 in septin buffer (300 mM KCl) with 1 mM DTT and 0.05% Tween 20, 4°C, 90 min; elution with 5 mM D-biotin; His blot; both purified
T1 sequence 1: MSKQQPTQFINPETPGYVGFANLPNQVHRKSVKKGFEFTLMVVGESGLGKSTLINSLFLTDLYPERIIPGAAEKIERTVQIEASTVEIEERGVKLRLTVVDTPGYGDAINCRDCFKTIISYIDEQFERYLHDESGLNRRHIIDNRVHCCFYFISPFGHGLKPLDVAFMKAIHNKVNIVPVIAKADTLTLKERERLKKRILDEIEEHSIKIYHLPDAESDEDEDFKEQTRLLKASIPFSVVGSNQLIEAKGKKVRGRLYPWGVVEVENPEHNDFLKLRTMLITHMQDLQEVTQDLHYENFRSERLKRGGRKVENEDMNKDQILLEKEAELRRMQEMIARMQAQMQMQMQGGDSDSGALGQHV
T1 sequence 2: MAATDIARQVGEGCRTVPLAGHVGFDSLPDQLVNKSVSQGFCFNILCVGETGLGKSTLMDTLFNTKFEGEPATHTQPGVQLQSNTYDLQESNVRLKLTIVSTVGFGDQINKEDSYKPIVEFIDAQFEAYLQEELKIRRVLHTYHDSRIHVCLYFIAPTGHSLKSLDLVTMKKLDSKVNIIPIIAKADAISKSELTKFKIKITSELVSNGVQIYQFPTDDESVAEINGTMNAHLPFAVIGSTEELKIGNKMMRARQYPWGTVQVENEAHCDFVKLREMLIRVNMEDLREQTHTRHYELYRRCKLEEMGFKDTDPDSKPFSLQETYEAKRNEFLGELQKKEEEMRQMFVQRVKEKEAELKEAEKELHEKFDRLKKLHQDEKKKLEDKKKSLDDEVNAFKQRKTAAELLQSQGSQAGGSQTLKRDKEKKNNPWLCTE
T1 sequence 3: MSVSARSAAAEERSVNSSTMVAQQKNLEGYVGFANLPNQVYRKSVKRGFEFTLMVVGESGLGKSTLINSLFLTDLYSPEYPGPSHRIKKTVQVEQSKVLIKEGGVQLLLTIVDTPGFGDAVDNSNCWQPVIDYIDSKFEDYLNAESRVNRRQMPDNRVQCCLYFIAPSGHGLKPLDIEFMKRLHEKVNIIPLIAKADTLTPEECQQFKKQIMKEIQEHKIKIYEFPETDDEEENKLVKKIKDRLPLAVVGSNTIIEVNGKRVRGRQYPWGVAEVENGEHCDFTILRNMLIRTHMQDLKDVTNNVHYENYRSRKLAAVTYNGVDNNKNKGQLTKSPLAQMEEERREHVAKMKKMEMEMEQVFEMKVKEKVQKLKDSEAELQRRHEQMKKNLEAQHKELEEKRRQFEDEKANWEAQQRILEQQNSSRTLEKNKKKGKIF

[2] = target: septin 9–septin 6–septin 7–septin 2 complex (His–SEPT2/6/7/9–Strep) (UniProt P42208); test: as above
[3] = target: GST-tagged rod domain of myosin IIA (GST–MyoIIA-Rod) (UniProt P35579); test: pull-down; three-way assay: His–Borg5 pre-incubated with septin 9-6-7-2 complexes, then bound to GST–MyoIIA-Rod immobilised on glutathione resin; septin buffer (300 mM KCl), 4°C; Coomassie gel and His blot; two experiments; both purified
[4] = target: septin 9–septin 6–septin 7–septin 2 complex (His–SEPT2/6/7/9–Strep) (UniProt P42208); test: pull-down; three-way assay: His–MyoIIA-Rod pre-incubated with His–Borg5, then bound to His–SEPT2/6/7/9–Strep immobilised on Strep-Tactin Sepharose; septin buffer (300 mM KCl), 4°C; biotin elution; His blot; four experiments; both purified
[5] = target: GST-tagged rod domain of myosin IIA (GST–MyoIIA-Rod) (UniProt P35579); test: pull-down; GST–MyoIIA-Rod immobilised on glutathione resin; recombinant proteins in equimolar ratios in septin buffer (10 mM Tris-HCl, 2 mM MgCl2, 300 mM KCl) with 1 mM DTT and 0.05% Tween 20, 4°C, 90 min; SDS elution; Coomassie gel and His blot; both purified

Measured: binding

B1: His–Borg5 (recombinant mouse Borg5, Cdc42EP1) (protein, UniProt Q91W92 1-409)
chain: MPGPQGGTGAPTMSLGKLSPVGWVSSSHGKRRLTADMISPPLGDFRHTMHVGRGGDVFGDTSFLSNHGGRSGNTHRSPRSFLARKLQQVRRVGVPPRRMASPAAPSPAPPPISPIIKNAISLPQLNQATYDSLVMGKLSFDSTPASSTDGHSGYGLESGFCTISRLPRVEKHSNRDRDRDPDHSQDREQSSFPSEPTPNPELRRSDSLLSFRFDLDLGPSLLSELLGVMSLSEAPAAETPVPTANPPAPAANPAPTAKPPAHAITTLDAVTSLPASAVTSLPAPAAASSPSRGHFPNGVTSVLGPAAEAKPSPVGEGPQVPSNMTFDRHGASWGASRASWGASRASRHYTEMDARRELAGVLPQVHGSWESLNEDWSTPPASVRAPVPTSVQVNAFEFADAEEDDEVKV
binds: [1] | [2] | [3] | [4] | [5]
